Paper PMC5432333
Results are given in words; binding and its absence hold for the method and conditions named. In cells and extracts the contact can be indirect. Some entries that bind do so weakly or less than the wild type.

Target: T1, Grb2-associated binder 1 (human (endogenous in Huh7-X and Hep3B)) (UniProt Q13480)
T1 sequence: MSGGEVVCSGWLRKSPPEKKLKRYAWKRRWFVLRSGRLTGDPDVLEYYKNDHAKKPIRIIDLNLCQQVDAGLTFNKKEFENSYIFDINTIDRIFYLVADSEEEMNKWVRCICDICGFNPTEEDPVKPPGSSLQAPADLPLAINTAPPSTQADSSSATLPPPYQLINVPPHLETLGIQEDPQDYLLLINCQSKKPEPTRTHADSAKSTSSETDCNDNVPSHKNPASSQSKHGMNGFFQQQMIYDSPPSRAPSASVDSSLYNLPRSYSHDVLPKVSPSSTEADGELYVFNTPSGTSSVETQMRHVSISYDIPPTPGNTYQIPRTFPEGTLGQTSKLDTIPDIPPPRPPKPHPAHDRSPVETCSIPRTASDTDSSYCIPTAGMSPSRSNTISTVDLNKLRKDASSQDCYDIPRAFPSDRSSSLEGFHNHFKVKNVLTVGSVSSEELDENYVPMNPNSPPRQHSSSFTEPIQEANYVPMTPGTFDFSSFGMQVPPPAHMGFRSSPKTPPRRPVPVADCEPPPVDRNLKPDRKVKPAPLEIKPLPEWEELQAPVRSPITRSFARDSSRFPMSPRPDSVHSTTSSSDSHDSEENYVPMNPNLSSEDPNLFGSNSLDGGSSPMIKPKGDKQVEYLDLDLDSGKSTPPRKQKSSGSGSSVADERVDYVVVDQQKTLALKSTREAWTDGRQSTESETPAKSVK
Experiment: co-IP; endogenous Gab1 precipitated overnight with anti-Gab1 antibodies and protein A/G PLUS-agarose from Huh7-X and Hep3B cell extracts (150 mM NaCl, 10 mM HEPES pH 7.5, 1% CHAPS); cells serum-starved 24 h, then EGF 50 ng/ml for 10 min; blots for SHP2, EGFR, Gab1

binding: binds
Substance: EGFR (from UniProt P00533 25-1210) (receptor)
